Measurements: patent US20060100173A1, “Ophthalmic solution” (priority 2004, published 2006)

Test system: five organisms
Test: Antimicrobial activity, sum of log drops of five organisms
Format: cell-based
Conditions: HA 1.7M relative to non-HA control and/or lower molecular weight HA compositions; Tris buffered

CCCCCCCCCCCCCCCC[n+]1ccccc1 [CPC, Cetylpyridinium Chloride]
reduction of the sum of the kill level by HA of MW 1.7M: less than 1 log
